Results published in paper doi:10.1101/2025.11.21.689678 (bioRxiv, 2025).

Sequences of proteins named here, by UniProt entry; tags and fusion partners are left off.
UniProt Q13263: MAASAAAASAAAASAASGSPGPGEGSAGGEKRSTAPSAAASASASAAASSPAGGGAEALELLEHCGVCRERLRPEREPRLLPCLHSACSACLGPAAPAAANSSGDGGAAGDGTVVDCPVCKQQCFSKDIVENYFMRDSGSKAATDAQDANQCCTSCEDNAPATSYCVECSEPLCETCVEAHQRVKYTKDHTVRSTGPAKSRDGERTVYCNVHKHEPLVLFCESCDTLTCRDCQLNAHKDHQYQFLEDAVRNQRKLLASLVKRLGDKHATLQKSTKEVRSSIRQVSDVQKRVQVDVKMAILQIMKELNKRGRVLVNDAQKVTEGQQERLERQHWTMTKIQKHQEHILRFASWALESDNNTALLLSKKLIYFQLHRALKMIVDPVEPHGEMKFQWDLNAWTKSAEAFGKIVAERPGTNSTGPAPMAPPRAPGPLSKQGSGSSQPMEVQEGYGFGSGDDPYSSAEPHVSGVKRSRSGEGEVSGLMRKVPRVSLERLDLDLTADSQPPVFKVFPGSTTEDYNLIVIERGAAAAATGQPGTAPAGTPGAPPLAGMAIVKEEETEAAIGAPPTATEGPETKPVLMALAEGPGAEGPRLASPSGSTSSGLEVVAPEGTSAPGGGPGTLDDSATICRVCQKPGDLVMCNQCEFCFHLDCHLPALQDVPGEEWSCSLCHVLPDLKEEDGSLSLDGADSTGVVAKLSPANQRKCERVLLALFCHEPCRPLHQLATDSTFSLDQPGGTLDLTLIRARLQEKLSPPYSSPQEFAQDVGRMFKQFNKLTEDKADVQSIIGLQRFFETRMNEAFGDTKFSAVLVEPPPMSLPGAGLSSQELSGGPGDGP

Molecular target: TAP-TRIM28 (human) (UniProt Q13263)
Experiment: affinity purification with mass spectrometry

binding: binds
B1: endogenous ALKBH2 (H1299) (protein, UniProt Q6NS38 1-261)
chain: MDRFLVKGAQGGLLRKQEEQEPTGEEPAVLGGDKESTRKRPRREAPGNGGHSAGPSWRHIRAEGLDCSYTVLFGKAEADEIFQELEKEVEYFTGALARVQVFGKWHSVPRKQATYGDAGLTYTFSGLTLSPKPWIPVLERIRDHVSGVTGQTFNFVLINRYKDGCDHIGEHRDDERELAPGSPIASVSFGACRDFVFRHKDSRGKSPSRRVAVVRLPLAHGSLLMMNHPTNTHWYHSLPVRKKVLAPRVNLTFRKILLTKK

Results are given in words; binding and its absence hold for the method and conditions named. In cells and extracts the contact can be indirect. These calls come from enrichment with a bait or labelling near it, and not all partners need be listed.
